{"source": "patent US20240252403A1", "about": "“SKIN CARE COMPOSITION FOR APPLICATION TO SKIN” (COSMED PHARMACEUTICAL CO., LTD., priority 2021, published 2024)", "origin": "cited, not measured here", "note": "Some entries share one result that the patent states for a list of compounds. Some compounds share one range, which may span the group rather than tell each member."}
{"conditions": "with respect to 100 g of water at 25° C.", "units": {"saturation solubility": "g"}}
{"molecule": "NC(=O)CC[C@H](N)C(=O)O", "note": "[glutamine]", "saturation solubility": "1 to 10"}
{"molecule": "CC(C)C[C@H](N)C(=O)O", "note": "[leucine]", "saturation solubility": "1 to 10"}
{"molecule": "N[C@@H](Cc1ccccc1)C(=O)O", "note": "[phenylalanine]", "saturation solubility": "1 to 10"}
{"molecule": "N[C@@H](Cc1c[nH]c2ccccc12)C(=O)O", "note": "[tryptophan]", "saturation solubility": "1 to 10"}
